According to patent publication US6286513A, “Methods for treating superficial bladder carcinoma” (priority 1998, dated 2001):
Some results come without the dose or concentration used.

Test: Overall bladder wall exposure to MMC: urinary AUC, C^n×T, urine production and pH (Table 3)
Format: in vivo, patients
Conditions: mean ± standard deviation
Text: A commonly used measure of drug exposure for anticancer agent is the product of exposure concentration and duration, or AUC (area under the curve). […] The drug exposure in the urinary bladder can be determined from the drug concentration in the urine and can serve as a measure of exposure to the tumor tissue.

For `COC12C(COC(N)=O)C3=C(C(=O)C(C)=C(N)C3=O)N1CC1NC12` (stereo not shown) [MMC], which Urine production (customary experimental therapy) is on record?
Its Urine production is 1.23 ± 0.86 mL/min.

What about the “pH (urine)” value (customary experimental therapy) of the same compound?
The value was 6.13 ± 0.84.

And the Urine production (high efficacy therapy)?
The Urine production was 1.05 ± 0.74 mL/min.

And the “pH (urine)” value (high efficacy therapy)?
The value was 6.80 ± 0.81.
